No constants are given. Whether binding was seen depends on the method and setting. Binding seen in cells or lysates may run through a third protein. Some binding calls cover weakened binding; strength is not graded here.
Target: prion protein (human (endogenous in SH-SY5Y)) (UniProt P04156)
Assay: co-IP

In the case of exportin-5 (from UniProt Q9HAV4 1-1204), the binding is reported as “binds”.

Reference: PMC10693047
